Results are given in words; binding and its absence hold for the method and conditions named. Binding seen in cells or lysates may run through a third protein. Some binding calls cover weakened binding; strength is not graded here. Tags and fused reporters may be left off the sequences shown.
T1: GST-fused SH3(A-E) domains of ITSN2 (residues 749-1193) (human) (UniProt Q9NZM3)
T1 sequence: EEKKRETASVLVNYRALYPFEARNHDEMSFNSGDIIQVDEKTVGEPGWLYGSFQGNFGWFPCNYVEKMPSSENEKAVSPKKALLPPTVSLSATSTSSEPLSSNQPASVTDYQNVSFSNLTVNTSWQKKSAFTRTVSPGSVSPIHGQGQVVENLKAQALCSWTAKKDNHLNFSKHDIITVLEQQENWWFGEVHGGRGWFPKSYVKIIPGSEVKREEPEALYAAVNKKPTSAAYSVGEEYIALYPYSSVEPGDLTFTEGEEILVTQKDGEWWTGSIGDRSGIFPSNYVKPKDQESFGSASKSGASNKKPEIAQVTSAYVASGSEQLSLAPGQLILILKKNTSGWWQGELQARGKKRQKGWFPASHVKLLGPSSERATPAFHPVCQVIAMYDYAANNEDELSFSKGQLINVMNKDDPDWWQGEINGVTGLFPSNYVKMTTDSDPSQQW

Amino acid sequences for entries named in this document (tags omitted). Residues count along the entry.
UniProt O00401, residues 22-459: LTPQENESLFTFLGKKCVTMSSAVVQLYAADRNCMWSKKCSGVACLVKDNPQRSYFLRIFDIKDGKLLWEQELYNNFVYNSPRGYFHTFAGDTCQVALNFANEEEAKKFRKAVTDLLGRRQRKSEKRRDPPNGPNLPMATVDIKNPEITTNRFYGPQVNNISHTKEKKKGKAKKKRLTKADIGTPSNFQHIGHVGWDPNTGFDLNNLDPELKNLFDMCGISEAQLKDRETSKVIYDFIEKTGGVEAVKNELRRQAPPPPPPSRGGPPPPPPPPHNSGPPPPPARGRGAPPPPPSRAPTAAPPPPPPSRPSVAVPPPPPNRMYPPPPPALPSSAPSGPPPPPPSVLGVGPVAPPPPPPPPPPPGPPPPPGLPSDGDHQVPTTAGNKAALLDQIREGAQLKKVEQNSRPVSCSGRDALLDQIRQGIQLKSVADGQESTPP
UniProt O43426, residues 1003-1558: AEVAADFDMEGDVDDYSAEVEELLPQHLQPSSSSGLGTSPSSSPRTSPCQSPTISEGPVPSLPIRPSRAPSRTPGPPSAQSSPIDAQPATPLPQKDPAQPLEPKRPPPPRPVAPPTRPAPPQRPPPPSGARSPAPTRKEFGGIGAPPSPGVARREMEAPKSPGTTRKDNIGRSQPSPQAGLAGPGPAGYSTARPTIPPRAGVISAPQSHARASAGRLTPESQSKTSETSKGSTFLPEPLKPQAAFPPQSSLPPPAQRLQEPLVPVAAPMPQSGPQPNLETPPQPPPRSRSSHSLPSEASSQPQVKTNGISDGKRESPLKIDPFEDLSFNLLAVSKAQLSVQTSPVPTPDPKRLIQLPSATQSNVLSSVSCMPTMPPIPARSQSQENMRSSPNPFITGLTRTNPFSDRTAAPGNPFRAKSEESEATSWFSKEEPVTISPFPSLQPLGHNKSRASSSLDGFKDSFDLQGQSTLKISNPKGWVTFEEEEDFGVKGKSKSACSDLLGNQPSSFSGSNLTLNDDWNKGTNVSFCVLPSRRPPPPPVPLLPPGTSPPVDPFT

T2: GST-fused SH3A domain of ITSN2 (residues 749-826) (human) (UniProt Q9NZM3)
T2 sequence: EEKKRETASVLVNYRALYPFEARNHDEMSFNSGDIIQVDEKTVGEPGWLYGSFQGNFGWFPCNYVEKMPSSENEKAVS

T3: GST-fused SH3C domain of ITSN2 (residues 976-1047) (human) (UniProt Q9NZM3)
T3 sequence: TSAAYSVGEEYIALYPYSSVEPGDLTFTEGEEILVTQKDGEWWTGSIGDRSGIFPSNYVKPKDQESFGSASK

T4: GST-fused SH3E domain of ITSN2 (residues 1116-1193) (human) (UniProt Q9NZM3)
T4 sequence: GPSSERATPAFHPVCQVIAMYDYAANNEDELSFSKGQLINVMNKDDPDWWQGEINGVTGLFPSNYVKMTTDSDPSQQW

B1: Flag-SPRY2 (protein, UniProt O43597 1-315)
chain: MEARAQSGNGSQPLLQTPRDGGRQRGEPDPRDALTQQVHVLSLDQIRAIRNTNEYTEGPTVVPRPGLKPAPRPSTQHKHERLHGLPEHRQPPRLQHSQVHSSARAPLSRSISTVSSGSRSSTRTSTSSSSSEQRLLGSSFSSGPVADGIIRVQPKSELKPGELKPLSKEDLGLHAYRCEDCGKCKCKECTYPRPLPSDWICDKQCLCSAQNVIDYGTCVCCVKGLFYHCSNDDEDNCADNPCSCSQSHCCTRWSAMGVMSLFLPCLWCYLPAKGCLKLCQGCYDRVNRPGCRCKNSNTVCCKVPTVPPRNFEKPT
B2: Omni-Sema6A cytoplasmic domain (residues 650-1021) (domain or fragment, UniProt Q9H2E6 650-1021)
chain: LLAIAVILAFVMGAVFSGITVYCVCDHRRKDVAVVQRKEKELTHSRRGSMSSVTKLSGLFGDTQSKDPKPEAILTPLMHNGKLATPGNTAKMLIKADQHHLDLTALPTPESTPTLQQKRKPSRGSREWERNQNLINACTKDMPPMGSPVIPTDLPLRASPSHIPSVVVLPITQQGYQHEYVDQPKMSEVAQMALEDQAATLEYKTIKEHLSSKSPNHGVNLVENLDSLPPKVPQREASLGPPGASLSQTGLSKRLEMHHSSSYGVDYKRSYPTNSLTRSHQATTLKRNNTNSSNSSHLSRNQSFGRGDNPPPAPQRVDSIQVHSSQPSGQAVTVSRQPSLNAYNSLTRSGLKRTPSLKPDVPPKPSFAPLST
B3: Omni-Reps1 (full-length) (protein, UniProt Q96D71 1-796)
chain: MEGLTLSDAEQKYYSDLFSYCDIESTKKVVVNGRVLELFRAAQLPNDVVLQIMELCGATRLGYFGRSQFYIALKLVAVAQSGFPLRVESINTVKDLPLPRFVASKNEQESRHAASYSSDSENQGSYSGVIPPPPGRGQVKKGSVSHDTVQPRTSADAQEPASPVVSPQQSPPTSPHTWRKHSRHPSGGNSERPLAGPGPFWSPFGEAQSGSSAGDAVWSGHSPPPPQENWVSFADTPPTSTLLTMHPASVQDQTTVRTVASATTAIEIRRQSSSYDDPWKITDEQRQYYVNQFKTIQPDLNGFIPGSAAKEFFTKSKLPILELSHIWELSDFDKDGALTLDEFCAAFHLVVARKNGYDLPEKLPESLMPKLIDLEDSADVGDQPGEVGYSGSPAEAPPSKSPSMPSLNQTWPELNQSSEQWETFSERSSSSQTLTQFDSNIAPADPDTAIVHPVPIRMTPSKIHMQEMELKRTGSDHTNPTSPLLVKPSDLLEENKINSSVKFASGNTVADGYSSSDSFTSDPEQIGSNVTRQRSHSGTSPDNTAPPPPPPRPQPSHSRSSSLDMNRTFTVTTGQQQAGVVAHPPAVPPRPQPSQAPGPAVHRPVDADGLITHTSTSPQQIPEQPNFADFSQFEVFAASNVNDEQDDEAEKHPEVLPAEKASDPASSLRVAKTDSKTEEKTAASAPANVSKGTTPLAPPPKPVRRRLKSEDELRPEVDEHTQKTGVLAAVLASQPSIPRSVGKDKKAIQASIRRNKETNTVLARLNSELQQQLKDVLEERISLEVQLEQLRPFSHL
B4: Myc-POB1 (protein, UniProt Q8NFH8 1-660)
chain: MEAAAAAAAAAAAAAAAGGGCGSGPPPLLLSEGEQQCYSELFARCAGAAGGGPGSGPPEAARVAPGTATAAAGPVADLFRASQLPAETLHQITELCGAKRVGYFGPTQFYIALKLIAAAQSGLPVRIESIKCELPLPRFMMSKNDGEIRFGNPAELHGTKVQIPYLTTEKNSFKRMDDEDKQQETQSPTMSPLASPPSSPPHYQRVPLSHGYSKLRSSAEQMHPAPYEARQPLVQPEGSSSGGPGTKPLRHQASLIRSFSVERELQDNSSYPDEPWRITEEQREYYVNQFRSLQPDPSSFISGSVAKNFFTKSKLSIPELSYIWELSDADCDGALTLPEFCAAFHLIVARKNGYPLPEGLPPTLQPEYLQAAFPKPKWDCQLFDSYSESLPANQQPRDLNRMEKTSVKDMADLPVPNQDVTSDDKQALKSTINEALPKDVSEDPATPKDSNSLKARPRSRSYSSTSIEEAMKRGEDPPTPPPRPQKTHSRASSLDLNKVFQPSVPATKSGLLPPPPALPPRPCPSQSEQVSEAELLPQLSRAPSQAAESSPAKKDVLYSQPPSKPIRRKFRPENQATENQEPSTAASGPASAATMKPHPTVQKQSSKQKKAIQTAIRKNKEANAVLARLNSELQQQLKEVHQERIALENQLEQLRPVTVL
B5: dynamin 1, endogenous in mouse brain (protein, UniProt P39053 1-867)
chain: MGNRGMEDLIPLVNRLQDAFSAIGQNADLDLPQIAVVGGQSAGKSSVLENFVGRDFLPRGSGIVTRRPLVLQLVNSTTEYAEFLHCKGKKFTDFEEVRLEIEAETDRVTGTNKGISPVPINLRVYSPHVLNLTLVDLPGMTKVPVGDQPPDIEFQIRDMLMQFVTKENCLILAVSPANSDLANSDALKIAKEVDPQGQRTIGVITKLDLMDEGTDARDVLENKLLPLRRGYIGVVNRSQKDIDGKKDITAALAAERKFFLSHPSYRHLADRMGTPYLQKVLNQQLTNHIRDTLPGLRNKLQSQLLSIEKEVDEYKNFRPDDPARKTKALLQMVQQFAVDFEKRIEGSGDQIDTYELSGGARINRIFHERFPFELVKMEFDEKELRREISYAIKNIHGIRTGLFTPDMAFETIVKKQVKKIREPCLKCVDMVISELISTVRQCTKKLQQYPRLREEMERIVTTHIREREGRTKEQVMLLIDIELAYMNTNHEDFIGFANAQQRSNQMNKKKTSGNQDEILVIRKGWLTINNIGIMKGGSKEYWFVLTAENLSWYKDDEEKEKKYMLSVDNLKLRDVEKGFMSSKHIFALFNTEQRNVYKDYRQLELACETQEEVDSWKASFLRAGVYPERVGDKEKASETEENGSDSFMHSMDPQLERQVETIRNLVDSYMAIVNKTVRDLMPKTIMHLMINNTKEFIFSELLANLYSCGDQNTLMEESAEQAQRRDEMLRMYHALKEALSIIGDINTTTVSTPMPPPVDDSWLQVQSVPAGRRSPTSSPTPQRRAPAVPPARPGSRGPAPGPPPAGSALGGAPPVPSRPGASPDPFGPPPQVPSRPNRAPPGVPSLGAWRLNSPQGKHENRAGKARL

Experiments:
[1] = target: T1, GST-fused SH3(A-E) domains of ITSN2 (residues 749-1193) (human); assay: pull-down; GST-SH3 domains (5-20 ug) on glutathione beads incubated 2 h at 4°C with lysate of HEK293 cells expressing the tagged protein; 20 mM Tris-HCl pH 7.5, 0.5% NP40, 150 mM NaCl, 10% glycerol, 1 mM Na3VO4; immunoblot with antibodies against tags; only the target purified
[2] = target: T2, GST-fused SH3A domain of ITSN2 (residues 749-826) (human); assay: pull-down; GST-SH3 domains (5-20 ug) on glutathione beads incubated 2 h at 4°C with lysate of mouse brain; 20 mM Tris-HCl pH 7.5, 0.5% NP40, 150 mM NaCl, 10% glycerol, 1 mM Na3VO4; immunoblot with antibodies against dynamin 1 or SOS1; only the target purified
[3] = target: T3, GST-fused SH3C domain of ITSN2 (residues 976-1047) (human); assay: as above
[4] = target: T4, GST-fused SH3E domain of ITSN2 (residues 1116-1193) (human); assay: as above
[5] = target: T2, GST-fused SH3A domain of ITSN2 (residues 749-826) (human); assay: pull-down; GST-SH3 domains (5-20 ug) on glutathione beads incubated 2 h at 4°C with lysate of HEK293 cells expressing the tagged protein; 20 mM Tris-HCl pH 7.5, 0.5% NP40, 150 mM NaCl, 10% glycerol, 1 mM Na3VO4; immunoblot with antibodies against tags; only the target purified
[6] = target: T3, GST-fused SH3C domain of ITSN2 (residues 976-1047) (human); assay: as above
[7] = target: T4, GST-fused SH3E domain of ITSN2 (residues 1116-1193) (human); assay: as above

Row | Molecule | binding [1] | binding [5] | binding [6] | binding [7] | other results
1 | Omni-N-WASP proline-rich domain (residues 22-459) (from UniProt O00401 22-459) (domain or fragment) | binds |  |  |  | 
2 | SOS1, endogenous in mouse brain (from UniProt Q62245 1-1319) |  |  |  |  | binding [2]: binds; binding [3]: binds; binding [4]: binds
3 | Omni-synaptojanin 1 proline-rich domain (residues 1003-1558) (from UniProt O43426 1003-1558) (domain or fragment) |  | binds | binds | binds | 
4 | B1 |  | binds | binds | binds | 
5 | B2 |  | binds | binds | binds | 
6 | B3 | binds |  |  |  | 
7 | B4 | binds |  |  |  | 
8 | B5 |  |  |  |  | binding [2]: binds; binding [3]: binds; binding [4]: binds

Reference: PMC3723668
